Data as given in PubChem BioAssay AID504744 (Drosophila RNAi Screening Center, 2011)
Screen: 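Find genes whose loss alters insulin-driven dAkt phosphorylation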 (primary screen). System: Drosophila Kc167 cells. Knock-down reagent: long dsRNA against Drosophila genes, 250 ng dsRNA per well of a 384-well plate. Timing: 3 days of knock-down, then overnight serum-free starvation before stimulation. Treatment: bovine insulin at 387 nM for 10 minutes after 12 h without serum. Measurement: 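In-cell antibody fluorescence for phospho-dAkt in each well over DNA-dye signal, with log2 residuals expressed as z-scores adjusted for cell count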. Call rule: 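Under insulin, a gene counts as a hit if the average z-score of two replicates lies above 2.5 or below -2.5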.
In all, the deposit lists about 23,000 reagents; below is a random part of those with a known target gene and a result. Of all reagents, 98 (0.43%) were called active. 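Only hit calls are given; the phospho-dAkt signals, z-scores and hit direction were not deposited.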 Names joined by + are all predicted targets of the reagent. No sequences are given here.

gene,PubChem SID,Call
CG42566 (GeneID 8674120),SID104183741,inactive
CG15717 (GeneID 32262),SID104199476,inactive
Muc55B (GeneID 37057),SID104201184,inactive
CanB2 (GeneID 46456),SID104187147,inactive
CngA (GeneID 36806),SID104186372,inactive
CngA (GeneID 36806),SID104187154,inactive
Arp5 (GeneID 42173),SID104196142,inactive
CAH6 (GeneID 43701),SID104195297,inactive
CG11686 (GeneID 50024),SID104194142,inactive
BBS4 (GeneID 36167),SID104186144,inactive
GstE1 (GeneID 37106),SID104187229,inactive
Tpc1 (GeneID 41316),SID104195406,inactive
Tpc1 (GeneID 41316),SID104195866,inactive
SdhA (GeneID 37228),SID104187339,inactive
CG2120 (GeneID 31737),SID104197999,inactive
Ir7f (GeneID 7354418),SID104197804,inactive
CG14292 (GeneID 42264),SID104194564,inactive
vers (GeneID 39374),SID104190507,inactive
CG15864 (GeneID 50001),SID104194914,inactive
CG17770 + Acam,SID104193902,inactive
CG17770 + Acam,SID104195056,inactive
PsGEF (retired record) (GeneID 31225),SID104198392,inactive
PsGEF (retired record) (GeneID 31225),SID104198393,inactive
PCB (GeneID 36020),SID104185731,inactive
COX7AL (GeneID 40995),SID104195105,inactive
CG13919 (GeneID 38200),SID104188180,inactive
Sil1 (GeneID 43034),SID104194034,inactive
rept (GeneID 40092),SID104191180,inactive
CG17049 (retired record) (GeneID 36483),SID104186442,inactive
Vha100-3 (GeneID 246543),SID104185552,inactive
Eig71Ee (GeneID 39706),SID104190944,inactive
CG17036 (GeneID 34679),SID104182356,inactive
ng2 (GeneID 31298),SID104198595,inactive
Trc8 (GeneID 43476),SID104195229,inactive
CG42507 + Trl,SID104189117,inactive
CG42507 + Trl,SID104191100,inactive
CG14024 (GeneID 33760),SID104180660,inactive
CG14024 (GeneID 33760),SID104182146,inactive
CG18278 + CG30059,SID104185210,inactive
Vha14-2 (GeneID 40748),SID104191937,inactive
Syn2 (GeneID 36848),SID104186694,inactive
PCID2 (GeneID 39306),SID104190614,inactive
CG8545 (GeneID 36365),SID104187002,inactive
CG11307 (GeneID 40400),SID104191440,inactive
Obp83b (GeneID 40738),SID104192152,inactive
na (GeneID 45338),SID104199431,inactive
mRpS23 (GeneID 318977),SID104181140,inactive
CG33998 (GeneID 3885594),SID104185539,inactive
gish (GeneID 49701),SID104195946,inactive
kel (GeneID 35084),SID104183346,inactive
Tsen54 (GeneID 39397),SID104190319,inactive
CG13501 (GeneID 37510),SID104183938,inactive
Kah (GeneID 38072),SID104187679,inactive
Kah (GeneID 38072),SID104188307,inactive
Hsp60D (GeneID 34763),SID104182335,inactive
CG8281 (GeneID 38880),SID104190768,inactive
Spn85F (GeneID 41221),SID104194337,inactive
CG42402 (GeneID 7354470),SID104200908,inactive
Muc18B (GeneID 32913),SID104199856,inactive
Muc18B (GeneID 32913),SID104201336,inactive
CG10993 (GeneID 32344),SID104199154,inactive
Arc42 (GeneID 42364),SID104194132,inactive
Arc42 (GeneID 42364),SID104195419,inactive
CG34260 + cmpy,SID104191493,inactive
Or69a (GeneID 2768964),SID104191035,inactive
Idh (GeneID 44291),SID104190571,inactive
zye (GeneID 40255),SID104191576,inactive
Cad87A (GeneID 41441),SID104195953,inactive
Fadd (GeneID 42594),SID104193914,inactive
MED16 (GeneID 37535),SID104184298,inactive
nht (GeneID 34902),SID104181768,inactive
CG7794 (GeneID 42159),SID104196105,inactive
CG4115 (GeneID 41499),SID104195337,inactive
CG9231 (GeneID 40130),SID104190846,inactive
l(2)k09848 (GeneID 35536),SID104184686,inactive
tut (GeneID 317996),SID104188701,inactive
CG12288 (GeneID 35027),SID104181947,inactive
mRpL48 (GeneID 33348),SID104180298,inactive
Mnr (GeneID 33098),SID104200341,inactive
Mnr (GeneID 33098),SID104200342,inactive
Mnr (GeneID 33098),SID104201912,inactive
PpV (GeneID 31582),SID104198492,inactive
Nplp1 (GeneID 38003),SID104184162,inactive
crq (GeneID 33219),SID104180602,inactive
Sans (GeneID 36427),SID104186149,inactive
rdhB (GeneID 42614),SID104195982,inactive
Cals (GeneID 43824),SID104196988,inactive
Cals (GeneID 43824),SID104201348,inactive
alphaTry (GeneID 48316),SID104187369,inactive
Spn28Da (GeneID 34082),SID104181954,inactive
ttm3 (GeneID 35437),SID104183528,inactive
Nepl11 (GeneID 40540),SID104192125,inactive
CG32204 (GeneID 317913),SID104189366,inactive
Uch (GeneID 33397),SID104180589,inactive
CG34166 (GeneID 5740596),SID104182274,inactive
CG11699 (GeneID 32101),SID104199211,inactive
pyd (GeneID 41062),SID104192504,inactive
pyd (GeneID 41062),SID104194179,inactive
pyd (GeneID 41062),SID104194237,inactive
pyd (GeneID 41062),SID104194301,inactive
pyd (GeneID 41062),SID104196339,inactive
pyd (GeneID 41062),SID104196340,inactive
pyd (GeneID 41062),SID104196833,inactive
pyd (GeneID 41062),SID104201243,inactive
Nelf-A (GeneID 42520),SID104195695,inactive
CG42323 (GeneID 32825),SID104199421,inactive
CG42323 (GeneID 32825),SID104201160,inactive
CG8155 (GeneID 36698),SID104186876,inactive
CG8155 (GeneID 36698),SID104201260,inactive
CR16735 (GeneID 10178810),SID104194936,inactive
Cpr11B (GeneID 32203),SID104199651,inactive
CG11369 (GeneID 31675),SID104197571,inactive
Zasp66 (GeneID 38988),SID104188724,inactive
Zasp66 (GeneID 38988),SID104190423,inactive
Zasp66 (GeneID 38988),SID104190424,inactive
Ucp4A (GeneID 32764),SID104199788,inactive
CG11286 (GeneID 40919),SID104194085,inactive
CG18135 (GeneID 40073),SID104190087,inactive
CG6013 (GeneID 42286),SID104195739,inactive
Eig71Eg (GeneID 39708),SID104190946,inactive
SRPK (GeneID 36706),SID104186882,inactive
CG42269 (GeneID 38689),SID104190462,inactive
CG42269 (GeneID 38689),SID104190464,inactive
CG12680 (GeneID 31427),SID104197663,inactive
BBS5 (GeneID 40600),SID104191960,inactive
CG17258 (GeneID 33517),SID104180287,inactive
CG17258 (GeneID 33517),SID104202094,inactive
CCHa2-R (GeneID 35535),SID104184617,inactive
CCHa2-R (GeneID 35535),SID104184662,inactive
CCHa2-R (GeneID 35535),SID104184663,inactive
Spp (GeneID 33227),SID104180120,inactive
CG7668 (GeneID 40190),SID104190693,inactive
Wee1 (GeneID 33965),SID104183427,inactive
pcm (GeneID 32935),SID104200153,inactive
CG5359 (GeneID 41222),SID104195572,inactive
Ubc84D (GeneID 40900),SID104192402,inactive
CCT4 (GeneID 34674),SID104182657,inactive
msi (GeneID 43087),SID104196795,inactive
CG32428 (GeneID 50105),SID104191489,inactive
CG32428 (GeneID 50105),SID104191560,inactive
Prm (GeneID 39002),SID104188733,inactive
Prm (GeneID 39002),SID104188734,inactive
Prm (GeneID 39002),SID104191047,inactive
Glo1 (GeneID 35656),SID104186449,inactive
CG8319 (GeneID 41165),SID104196199,inactive
CG7333 (GeneID 42334),SID104196021,inactive
IFT54 (GeneID 41739),SID104195261,inactive
CG5641 (GeneID 41529),SID104195644,inactive
CG4615 (GeneID 31656),SID104197283,inactive
CG4615 (GeneID 31656),SID104198168,inactive
CG32603 (GeneID 318109),SID104199201,inactive
CG32603 (GeneID 318109),SID104201293,inactive
Pex11c (GeneID 42751),SID104194469,inactive
CG14050 (GeneID 31218),SID104198386,inactive
CG11630 (GeneID 35429),SID104183488,inactive
CG30470 (retired record) (GeneID 246632),SID104185345,inactive
CG30470 (retired record) (GeneID 246632),SID104186052,inactive
CG30470 (retired record) (GeneID 246632),SID104186053,inactive
CG30470 (retired record) (GeneID 246632),SID104186569,inactive

Entries listed so far whose gene name begins with I or i (3):
gene,PubChem SID,Call
Ir7f (GeneID 7354418),SID104197804,inactive
Idh (GeneID 44291),SID104190571,inactive
IFT54 (GeneID 41739),SID104195261,inactive
